PubChem BioAssay AID248 (DTP/NCI, 2004)
The list shows only some results of the screen, not a fair sample: it gathers tests that were run many times, whatever their T/C, doses with no T/C, and many T/C values between a quarter and a half above the control. Other doses and runs of a compound stand elsewhere. T/C: endpoint of the treated group in % of that of the vehicle group. Some doses have a count of surviving animals in place of a T/C: the source holds a T/C of zero for them, seemingly a mark for toxic or unscored doses. Some survivor counts are full or nearly so, which does not show that the dose was tolerated: survival well below the control is almost never listed, so the zero probably covers shortened survival too. Counts of survivors are from the toxicity check (mostly the fifth day) where no day follows; animals may have died later. Schedules are NCI's codes, taken here to give the interval after Q, in days (D) or hours (H), and the number of doses after X. Some schedule codes hold Z or #, which are not explained here. For survival time, the PubChem record calls one and a half times the control and up active, and a quarter to a half above the control has no call in these data; cut-offs in other NCI protocols can differ. Some T/C values carry the count of animals alive at the toxicity check (mostly the fifth day); where none is given, no animal had died by that day.

Tested on: L1210 leukemia ip in BDF1 mice, survival T/C
Experiment: NCI In Vivo Anticancer Drug Screen. Data for tumor model L1210 Leukemia (intraperitoneal) in B6D2F1 (BDF1) mice
Conditions: T/C endpoint: mean survival time, higher T/C = longer survival
[1] = dose: 400.0 mg/kg/injection, schedule: Q01DX001 (ip), vehicle: carboxymethylcellulose (CMC)
[2] = dose: 100.0 mg/kg/injection, schedule: Q01DX009 (ip), vehicle: saline with Tween-80
[3] = dose: 100.0 mg/kg/injection, schedule: Q04DX003 (ip), vehicle: saline with Tween-80
[4] = dose: 200.0 mg/kg/injection, schedule: Q04DX003 (ip), vehicle: saline with Tween-80
[5] = dose: 400.0 mg/kg/injection, schedule: Q01DX001 (ip), vehicle: saline
[6] = dose: 400.0 mg/kg/injection, schedule: Q04DX003 (ip), vehicle: Klucel (hydroxypropylcellulose) (HPC)
[7] = dose: 40.0 mg/kg/injection, schedule: Q01DX001 (ip), vehicle: saline

CC(C)Cn1cnc2c(Sc3c([N+](=O)[O-])ncn3C)nc(N)nc21
T/C (dose: 17.7 mg/kg/injection, schedule: Q01DX001 (ip), vehicle: carboxymethylcellulose (CMC)): 144 % of control
T/C (dose: 50.0 mg/kg/injection, schedule: Q01DX015 (ip), vehicle: carboxymethylcellulose (CMC)): 132 % of control
T/C (dose: 266.0 mg/kg/injection, schedule: Q01DX001 (ip), vehicle: carboxymethylcellulose (CMC)): 137 % of control
T/C [1]: 138 % of control

CC(C)(C)C(=O)C(Br)Br
survivor count (dose: 200.0 mg/kg/injection, schedule: Q04DX002 (ip), vehicle: Klucel (hydroxypropylcellulose) (HPC)): 1 of 3
survivor count (dose: 400.0 mg/kg/injection, schedule: Q04DX002 (ip), vehicle: Klucel (hydroxypropylcellulose) (HPC)): 0 of 3

Nc1cnccc1NCCc1cccc(O)c1
survivor count [2]: 6 of 6
survivor count (dose: 400.0 mg/kg/injection, schedule: Q01DX009 (ip), vehicle: saline with Tween-80): 0 of 6

NNc1nncn1N
survivor count (dose: 400.0 mg/kg/injection, schedule: Q04DX003 (ip), vehicle: saline): 5 of 6

COc1ccc(NC(=O)Nc2ccc(C3=NCCN3)cc2)cc1NC(=O)Nc1ccc(C2=NCCN2)cc1
T/C (dose: 62.0 mg/kg/injection, schedule: Q01DX Z (ip), vehicle: carboxymethylcellulose (CMC)): 127 % of control
survivor count (dose: 250.0 mg/kg/injection, schedule: Q01DX Z (ip), vehicle: carboxymethylcellulose (CMC)): 1 of 6
survivor count (dose: 500.0 mg/kg/injection, schedule: Q01DX Z (ip), vehicle: carboxymethylcellulose (CMC)): 0 of 6

CCCCCCCCCCCC[N+](C)(C)CCn1cnc2c(N)ncnc21
survivor count [3]: 0 of 4
survivor count [4]: 0 of 4
survivor count (dose: 400.0 mg/kg/injection, schedule: Q04DX003 (ip), vehicle: saline with Tween-80): 0 of 4

CCCCc1nc2c(c(=O)n(C)c(=O)n2C)n1C
survivor count [5]: 0 of 4

CCCCc1ccc2nc(NC(=O)OC)[nH]c2c1
T/C [3]: 139 % of control
T/C (dose: 100.0 mg/kg/injection, schedule: Q04DX003 (ip), vehicle: saline): 125 % of control
T/C [4]: 143 % of control

CN(C)c1ccc(C(C#N)(c2ccc(N(C)C)cc2)c2ccc(N(C)C)cc2)cc1
survivor count (dose: 400.0 mg/kg/injection, schedule: Q01DX009 (ip), vehicle: Klucel (hydroxypropylcellulose) (HPC)): 5 of 6

CC(=O)[C@@]1(O)CC[C@H]2[C@@H]3CCC4=CC(=O)CC[C@]4(C)[C@@]3(F)[C@@H](O)C[C@@]21C
survivor count (dose: 50.0 mg/kg/injection, schedule: Q01DX Z (sc), vehicle: steroid suspending solution): 6 of 6

ClC1=C(Cl)C(Cl)(Cl)SC1(Cl)Cl
survivor count (dose: 18.0 mg/kg/injection, schedule: Q01DX009 (ip), vehicle: acetone): 0 of 6
survivor count (dose: 25.0 mg/kg/injection, schedule: Q04DX003 (ip), vehicle: acetone): 5 of 6
survivor count (dose: 28.0 mg/kg/injection, schedule: Q01DX009 (ip), vehicle: acetone): 0 of 6
survivor count (dose: 40.0 mg/kg/injection, schedule: Q01DX009 (ip), vehicle: acetone): 0 of 6
survivor count (dose: 50.0 mg/kg/injection, schedule: Q04DX003 (ip), vehicle: acetone): 1 of 6

COc1ccc(OCCC(=O)O)cc1
survivor count [5]: 6 of 6

CN(C)Cc1ccccc1C(=O)C(c1ccccc1)c1ccccc1
survivor count (dose: 125.0 mg/kg/injection, schedule: Q01DX Z (ip), vehicle: methylcellulose (MC)): 1 of 6

CC(S)CN1CC1 (stereo unspecified)
survivor count [6]: 2 of 6

N#CSCc1ccc(CSC#N)c(Cl)c1
survivor count (dose: 25.0 mg/kg/injection, schedule: Q04DX003 (ip), vehicle: Klucel (hydroxypropylcellulose) (HPC)): 6 of 6
survivor count (dose: 50.0 mg/kg/injection, schedule: Q04DX003 (ip), vehicle: Klucel (hydroxypropylcellulose) (HPC)): 5 of 6
survivor count (dose: 100.0 mg/kg/injection, schedule: Q04DX003 (ip), vehicle: Klucel (hydroxypropylcellulose) (HPC)): 0 of 6

COC(=O)c1cn[nH]c1/N=N/N(C)C
T/C (dose: 38.0 mg/kg/injection, schedule: Q01DX009 (ip), vehicle: other): 136 % of control
T/C (dose: 58.0 mg/kg/injection, schedule: Q01DX009 (ip), vehicle: saline): 126 % of control
T/C (dose: 88.0 mg/kg/injection, schedule: Q01DX009 (ip), vehicle: saline): 145 % of control

O=C(ONC1CCC(CC2CCCCC2)CC1)c1ccccc1 (stereo unspecified)
survivor count (dose: 200.0 mg/kg/injection, schedule: Q01DX009 (ip), vehicle: Klucel (hydroxypropylcellulose) (HPC)): 2 of 6
survivor count [6]: 0 of 6

NC1CCC(OC(=O)C23CC4CC(CC(C4)C2)C3)CC1 (stereo unspecified)
survivor count (dose: 200.0 mg/kg/injection, schedule: Q01DX001 (ip), vehicle: saline with Tween-80): 1 of 6
survivor count (dose: 400.0 mg/kg/injection, schedule: Q01DX001 (ip), vehicle: saline with Tween-80): 0 of 6

COc1ccc(CCNC(=O)Cc2ccccc2[N+](=O)[O-])cc1OC
survivor count (dose: 100.0 mg/kg/injection, schedule: Q01DX001 (ip), vehicle: carboxymethylcellulose (CMC)): 0 of 4
survivor count (dose: 200.0 mg/kg/injection, schedule: Q01DX001 (ip), vehicle: carboxymethylcellulose (CMC)): 0 of 4
survivor count [1]: 0 of 4

COC1C(O)C(C)OC(OC2CCC3(C)C(CCC4C3C(O)CC3(C)C(C5=CC(=O)OC5)CCC43O)C2)C1O (stereo unspecified)
survivor count [7]: 2 of 6
survivor count (dose: 80.0 mg/kg/injection, schedule: Q01DX001 (ip), vehicle: saline): 0 of 6

Cc1nc2ccccc2cc1CCl
survivor count (dose: 300.0 mg/kg/injection, schedule: Q01DX001 (ip), vehicle: acetone): 0 of 6

Cc1nccnc1N
survivor count (dose: 200.0 mg/kg/injection, schedule: Q01DX009 (ip), vehicle: saline): 1 of 6
survivor count (dose: 400.0 mg/kg/injection, schedule: Q01DX009 (ip), vehicle: saline): 0 of 6

Nc1ncnc2c1ncn2C1OC(CO)C(N)C1O (stereo unspecified)
T/C (dose: 4.5 mg/kg/injection, schedule: Q01DX Z (ip), vehicle: carboxymethylcellulose (CMC)): 133 % of control [4 of 6 alive]

COC(COS(=O)(=O)c1ccc(Br)cc1)(c1ccccc1)c1ccccc1
survivor count [2]: 3 of 3
survivor count (dose: 200.0 mg/kg/injection, schedule: Q01DX009 (ip), vehicle: saline with Tween-80): 3 of 3

CCN(C(=O)c1ccc([N+](=O)[O-])cc1)C(c1ccco1)P(=O)(c1ccccc1)c1ccccc1 (stereo unspecified)
survivor count (dose: 100.0 mg/kg/injection, schedule: Q04DX002 (ip), vehicle: saline with Tween-80): 0 of 3
survivor count (dose: 200.0 mg/kg/injection, schedule: Q04DX002 (ip), vehicle: saline with Tween-80): 3 of 3
survivor count (dose: 400.0 mg/kg/injection, schedule: Q04DX002 (ip), vehicle: saline with Tween-80): 3 of 3

CC(C)C1=CC23CCC4C(C)(C(=O)O)CCCC4(C)C2CC1C1C(=O)N(CCCN(C)C)C(=O)C13 (stereo unspecified)
survivor count (dose: 300.0 mg/kg/injection, schedule: Q01DX001 (ip), vehicle: other): 0 of 6

COc1ccc(C2=CC(=O)C(c3ccc(OC)cc3)=CC2=O)cc1
survivor count (dose: 40.0 mg/kg/injection, schedule: Q01DX009 (ip), vehicle: gum acacia): 6 of 6

O=C1CC2OCC=C3C[N+]4(SS(=O)(=O)[O-])CCC56c7ccccc7N1C5C2C3CC64 (stereo unspecified)
survivor count (dose: 2.1 mg/kg/injection, schedule: Q01DX009 (ip), vehicle: saline): 1 of 6
survivor count (dose: 2.5 mg/kg/injection, schedule: Q01DX001 (ip), vehicle: saline): 0 of 6
survivor count (dose: 5.0 mg/kg/injection, schedule: Q01DX001 (ip), vehicle: saline): 0 of 6
survivor count (dose: 10.0 mg/kg/injection, schedule: Q01DX001 (ip), vehicle: saline): 0 of 6
survivor count (dose: 20.0 mg/kg/injection, schedule: Q01DX001 (ip), vehicle: saline): 0 of 6
survivor count [7]: 0 of 6
survivor count (dose: 75.0 mg/kg/injection, schedule: Q01DX001 (ip), vehicle: saline): 0 of 6
survivor count (dose: 150.0 mg/kg/injection, schedule: Q01DX001 (ip), vehicle: saline): 0 of 6
survivor count (dose: 300.0 mg/kg/injection, schedule: Q01DX001 (ip), vehicle: saline): 0 of 6

CSc1ccc([N+](=O)[O-])cc1
survivor count [6]: 1 of 6

CN(C)c1ccc(/C(=N\O)C(=O)O)cc1
survivor count [5]: 0 of 4
